For experiment [1], the target named is Death receptor 4 (DR4) (human (endogenous in SW948)), O00220. Description: co-IP; DR4-DISC and DR5-DISC: SW948 cells stimulated 15 min at 37°C with 5 μg/ml agonistic antibody (HGS-ETR1 for DR4, TR2J for DR5); lysis in 0.2% Nonidet P-40, 150 mM NaCl, 20 mM Tris-HCl pH 7.5; precipitated with protein-G agarose; Western blot for DR4, DR5, FADD, caspase 8, c-FLIP. Conditions: remark: other sources report otherwise.

Experiment [2] deals with Death receptor 5 (DR5) (human (endogenous in SW948)), O14763. Described as above. Conditions: remark: other sources report otherwise.

These are yes or no findings as the source states them, for the method shown. In cells and extracts the contact can be indirect. Some results given as binding are weak or reduced against the parent protein; the word gives no strength.

B1: Caspase 8, Q14790 1-479 (enzyme)
chain: MDFSRNLYDIGEQLDSEDLASLKFLSLDYIPQRKQEPIKDALMLFQRLQEKRMLEESNLSFLKELLFRINRLDLLITYLNTRKEEMERELQTPGRAQISAYRVMLYQISEEVSRSELRSFKFLLQEEISKCKLDDDMNLLDIFIEMEKRVILGEGKLDILKRVCAQINKSLLKIINDYEEFSKERSSSLEGSPDEFSNGEELCGVMTISDSPREQDSESQTLDKVYQMKSKPRGYCLIINNHNFAKAREKVPKLHSIRDRNGTHLDAGALTTTFEELHFEIKPHDDCTVEQIYEILKIYQLMDHSNMDCFICCILSHGDKGIIYGTDGQEAPIYELTSQFTGLKCPSLAGKPKVFFIQACQGDNYQKGIPVETDSEEQPYLEMDLSSPQTRYIPDEADFLLGMATVNNCVSYRNPAEGTWYIQSLCQSLRERCPRGDDILTILTEVNYEVSNKDDKKNMGKQMPQPTFTLRKKLVFPSD
Turning to B1, the binding entry in experiment [1] and in experiment [2] was “binds” each time.

Values taken from publication PMC3045356.
